Measured values published in patent US12036271B2, “Peptides and combination of peptides as targets or active ingredients for use in immunotherapy against AML and other cancers” (Immatics Biotechnologies GmbH, priority 2016, dated 2024).

Each substance was assayed on other tumor types (measured tumor samples) (assay: Presentation of the peptides on additional tumor types (LC-MS of HLA ligands)). Settings: additional tumor types on which the peptide was over-presented on more than 5% of measured tumor samples, or presented on more than 5% with ratio of geometric means tumor vs normal tissues larger than 3.
Parameters: species or system human

Question: “6 (GLAEVLLAA; listed as Homo sapiens) [compound 6]” was tested. Which Other relevant organs/diseases did it give?
Answer: NHL, Uterine Cancer

Question: For “7 (LLWGDIMEL; listed as Homo sapiens) [compound 7]”, which Other relevant organs/diseases is on record?
Answer: NHL

Question: How did the Other relevant organs/diseases turn out when “8 (LLWPGAALLV; listed as Homo sapiens) [compound 8]” was run?
Answer: NHL

Question: For “9 (SLLAYLEQA; listed as Homo sapiens) [compound 9]”, which Other relevant organs/diseases is on record?
Answer: BRCA

Question: For “10 (VILDPVHSV; listed as Homo sapiens) [compound 10]”, which Other relevant organs/diseases is on record?
Answer: SCLC, NHL, BRCA, Uterine Cancer

Question: How did the Other relevant organs/diseases turn out when “13 (ALVPGVTQV; listed as Homo sapiens) [compound 13]” was run?
Answer: CLL, NHL, Melanoma, Uterine Cancer

Question: For “14 (ALWWGTITL; listed as Homo sapiens) [compound 14]”, which Other relevant organs/diseases is on record?
Answer: CLL, NHL

Question: Which Other relevant organs/diseases does the source give for “15 (FIDEEVEDMYL; listed as Homo sapiens) [compound 15]” here?
Answer: NHL, Urinary bladder cancer, Gallbladder Cancer, Bile Duct Cancer

Question: Which Other relevant organs/diseases does the source give for “20 (GLDAFLLEL; listed as Homo sapiens) [compound 20]” here?
Answer: NHL, Gallbladder Cancer, Bile Duct Cancer

Question: With “23 (GLLQPPVRIV; listed as Homo sapiens) [compound 23]” as the substance, how does the Other relevant organs/diseases read?
Answer: HCC

Question: Which Other relevant organs/diseases does the source give for “24 (GLVELLNRV; listed as Homo sapiens) [compound 24]” here?
Answer: NHL

Question: “27 (KANPALYVL; listed as Homo sapiens) [compound 27]” was tested. Which Other relevant organs/diseases did it give?
Answer: CLL

Question: For “28 (LLDQMETPL; listed as Homo sapiens) [compound 28]”, which Other relevant organs/diseases is on record?
Answer: Melanoma

Question: “29 (RLGPSVVGL; listed as Homo sapiens) [compound 29]” was tested. Which Other relevant organs/diseases did it give?
Answer: Melanoma

Question: Which Other relevant organs/diseases does the source give for “31 (SLFVFIPMV; listed as Homo sapiens) [compound 31]” here?
Answer: Urinary bladder cancer

Question: “32 (SLSDRSWHL; listed as Homo sapiens) [compound 32]” was tested. Which Other relevant organs/diseases did it give?
Answer: Brain Cancer

Question: Which Other relevant organs/diseases does the source give for “33 (TIMNQEKLAKL; listed as Homo sapiens) [compound 33]” here?
Answer: CRC, NHL, Uterine Cancer

Question: How did the Other relevant organs/diseases turn out when “34 (TLSPWSFLI; listed as Homo sapiens) [compound 34]” was run?
Answer: NSCLC, Uterine Cancer

Question: For “35 (VLFEHAVGYAL; listed as Homo sapiens) [compound 35]”, which Other relevant organs/diseases is on record?
Answer: CRC, CLL, NHL, BRCA, Melanoma, Urinary bladder cancer

Question: Which Other relevant organs/diseases does the source give for “36 (VLGPSPSSV; listed as Homo sapiens) [compound 36]” here?
Answer: BRCA, Melanoma

Question: Which Other relevant organs/diseases does the source give for “43 (AMLDFVSSL; listed as Homo sapiens) [compound 43]” here?
Answer: NHL

Question: With “45 (FLFTDVLLM; listed as Homo sapiens) [compound 45]” as the substance, how does the Other relevant organs/diseases read?
Answer: NHL

Question: For “49 (IIDDNHAIV; listed as Homo sapiens) [compound 49]”, which Other relevant organs/diseases is on record?
Answer: Melanoma

Question: “52 (IVDPVDSTL; listed as Homo sapiens) [compound 52]” was tested. Which Other relevant organs/diseases did it give?
Answer: Melanoma

Question: Which Other relevant organs/diseases does the source give for “56 (LANPTTSAL; listed as Homo sapiens) [compound 56]” here?
Answer: CLL, Gallbladder Cancer, Bile Duct Cancer

Question: For “75 (VLAPLGFTL; listed as Homo sapiens) [compound 75]”, which Other relevant organs/diseases is on record?
Answer: BRCA

Question: For “78 (VLSEVECHL; listed as Homo sapiens) [compound 78]”, which Other relevant organs/diseases is on record?
Answer: Melanoma

Question: How did the Other relevant organs/diseases turn out when “79 (YLMDPDTFTF; listed as Homo sapiens) [compound 79]” was run?
Answer: SCLC

Question: With “80 (YLTEALQSI; listed as Homo sapiens) [compound 80]” as the substance, how does the Other relevant organs/diseases read?
Answer: CLL, NHL

Question: With “82 (LLPDNFIAA; listed as Homo sapiens) [compound 82]” as the substance, how does the Other relevant organs/diseases read?
Answer: Brain Cancer, HCC, PC, NHL, BRCA, Melanoma, Esophageal Cancer, Urinary bladder cancer, Uterine Cancer, Gallbladder Cancer, Bile Duct Cancer

Question: For “83 (GLGAGVAEAV; listed as Homo sapiens) [compound 83]”, which Other relevant organs/diseases is on record?
Answer: CLL
